Drawing on PMC6246682, “Structural Basis of Tau Interaction With BIN1 and Regulation by Tau Phosphorylation” (Frontiers in Molecular Neuroscience, 2018), this text covers binding for one molecule.

Results are given in words; binding and its absence hold for the method and conditions named.

The experiment concerns the target T1, BIN1 SH3 domain, O00499.
T1 chain: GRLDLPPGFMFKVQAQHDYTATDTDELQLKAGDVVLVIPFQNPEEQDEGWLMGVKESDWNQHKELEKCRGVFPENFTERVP
Nature of the experiment: 15N NMR relaxation (R1, R2, correlation time); 15N-labeled BIN1 SH3 0.12 mM, alone and with Tau (210–240) at 1:8 molar ratio; 293K, 600 MHz; both purified. As to conditions: remark: other sources report otherwise.

B1: BIN1 SH3 domain, O00499 513-593 (domain or fragment)
chain: T1 chain
Regarding B1, the binding entry is reported as “no binding (tested: 0.12 mM)”.
